Test results from patent publication US20170160285A1 (VIB VZW, published 2017).
Results are given in words; binding and its absence hold for the method and conditions named. Some binding calls cover weakened binding; strength is not graded here.

How the values were obtained:
[1] = target: RIC8A/Gαi1 complex (non-covalent) (rat) (UniProt Q80ZG1); test: FACS of yeast cells displaying the Nb, stained with 1 µM RIC8A-DYLIGHT-405/Gαi1-DYLIGHT-488 mixture; black = clone (CA8316 per legend), grey = irrelevant Nb
[2] = target: RIC8A/Gαi1 complex (non-covalent) (rat) (UniProt Q80ZG1); test: FACS on single yeast clone displaying the Nb; 1 µM RIC8A-DYLIGHT-405/Gαi1-DYLIGHT-488 complex
[3] = target: RIC8A/Gαi1 complex (non-covalent) (rat) (UniProt Q80ZG1); test: FACS of yeast cells displaying the Nb, stained with 1 µM RIC8A-DYLIGHT-405/Gαi1-DYLIGHT-488 mixture; black = clone (CA8322 per legend), grey = irrelevant Nb
[4] = target: T1, Recombinant rat RIC8A (resistance to inhibitors of cholinesterase 8A) (rat) (UniProt Q80ZG1); test: FACS on single yeast clone displaying the Nb; 1 µM RIC8A-DYLIGHT-405
T1 sequence (looked up): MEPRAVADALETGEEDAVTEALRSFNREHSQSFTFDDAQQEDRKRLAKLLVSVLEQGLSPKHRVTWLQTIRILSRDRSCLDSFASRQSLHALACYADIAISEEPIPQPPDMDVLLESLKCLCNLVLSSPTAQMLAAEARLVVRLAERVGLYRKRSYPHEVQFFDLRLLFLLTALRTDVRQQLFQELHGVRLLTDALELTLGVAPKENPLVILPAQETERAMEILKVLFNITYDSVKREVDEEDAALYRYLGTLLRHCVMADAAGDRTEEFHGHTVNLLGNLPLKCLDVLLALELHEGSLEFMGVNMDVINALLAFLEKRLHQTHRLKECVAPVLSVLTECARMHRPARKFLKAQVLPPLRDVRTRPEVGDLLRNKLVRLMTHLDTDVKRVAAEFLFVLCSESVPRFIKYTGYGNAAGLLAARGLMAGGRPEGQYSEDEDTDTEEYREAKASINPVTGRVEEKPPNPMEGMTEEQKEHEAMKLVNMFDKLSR

[5] = target: T1, Recombinant rat RIC8A (resistance to inhibitors of cholinesterase 8A) (rat); test: FACS of yeast cells displaying the Nb, stained with 1 µM RIC8A-DYLIGHT-405; black = clone (CA8322 per legend), grey = irrelevant Nb

B1: NANOBODY CA8316 (VHH)
VHH: QLQLVESGGGLVQAGGSLRLSCAASGDTFSRYVMGWFRQAPGKERTFVVGISGGGGITRYADSVKGRFTISRDNAENTLYLEMNTLNPEDTAVYYCAATPADSAFMRNLRVYDYWGQGTQVTVSS
notes: Family 7; The same nanobody subcloned in pMESy4 and purified from E. coli is CA8332
In the case of B1, the binding [1] is reported as “binds” and the binding [2] is reported as “binds”.

B2: NANOBODY CA8322 (VHH)
VHH: QVQLVESEGGLVQPGGSLRLSCAASGFTFKYYYMNWVRQAPGKGLEWVSRINQLGGTSYGDSVKGRFTISRDNAKNTLYLQMNSLVPEDTAVYYCARCPAGAACKVEYDYRGQGTQVTVSS
notes: Family 16; also called CA8338 (pMESy4, E. coli)
With B2 the binding [3] was “binds”, the binding [4] was “binds” and the binding [2] was “binds”. For the same binder, the binding [5] was “binds”.

B3: NANOBODY CA8319 (VHH)
VHH: QVQLVESGGGLVQAGGSLRLSCEASGRTSSSYVMGWFRRVSGKEREFVAAINPTGSSTYYADSVKGRFTISRDNSKNTVYVQMNGLKPEDTAVYYCAATRRDFYIIRNSRPQFDYWGQGTQVTVSS
notes: Family 10
With B3 the binding [2] was “binds”.

B4: NANOBODY CA8402 (VHH)
VHH: QVQLVESGGGLVQAGGSLRLSCAASGRTFSNYAMGWFRQAPGKEREFVAAISWSGGKTLYAESVKGRFTISRDNAKNTVYLQMNSLKPEDTAVYYCAATPADLTVVAGPPRIEMWYWGQGTQVTVSS
notes: Family 19; also called CA8431 (pMESy4, E. coli)
B4 was tested, and the binding [2] was “binds”.

B5: NANOBODY CA8403 (VHH)
VHH: QVQLVESGGGLVQAGGSLRLSCAASTRTFSNYVMGWFRQAPGKEREFVSAITSSGRGTSYADSVKGRFTISRDNAKNTVFLQMNSLKPEDTAVYYCAATAADYVLRSRPSVYSYWGQGTQVTVSS
notes: Family 20; also called CA8432 (pMESy4, E. coli)
For B5, the binding [2] was “binds”.

B6: NANOBODY CA8405 (VHH)
VHH: QVQLVESGGGLVQDGGSLRLSCTASGRTFSNNAMGWFRQEPGREREFVAAIRWNGIANYADSVKGRFTISGDNAKNTVYLQMNSLKPDDTAVYYCAAAIRDGHNYYASDMRRYDYWGQGTQVTVSS
notes: Family 21; also called CA8433 (pMESy4, E. coli)
For B6, the binding [2] was “binds”.

B7: NANOBODY CA8418 (VHH)
VHH: QVQLVESGGGLVQAGGSLRLSCAASGRTFSNYAMGWFRQAPGKEREFVAALTWSGGNTVYRDSVKGRFIITRDNAKNAVYLQMNSLKPEDTAVYYCASDRRPYRYNIGTAEGEYNYWGQGTQVTVSS
notes: Family 23
B7 was tested, and the binding [4] was “binds” and the binding [2] was “binds”.

B8: NANOBODY CA8419 (VHH)
VHH: QVQLVESGGGLVQPGGSLRLSCAASGFTFSRFVMNWARQAPGKGLEWVSTINSDGDVTSYADSVKGRFTISRDNAKNTLYLQMNSLKPEDTAVYYCGKGWFLNRRDESRGQGTQVTVSS
notes: Family 24
For B8, the binding [4] was “binds” and the binding [2] was “binds”.

B9: NANOBODY CA8421 (VHH)
VHH: QVQLVESGGGLVQAGGSLRLSCAASGRTFSNYAMGWFRQAPGKEREFVAHITWTGGITYYSDSVKGRFIISRDNAKNTVNLQMNSLKAEDTAVYYCAADRVPYRFGVPSINEYDYWGQGTQVTVSS
notes: Family 26
In the case of B9, the binding [4] is reported as “binds” and the binding [2] is reported as “binds”.

B10: NANOBODY CA8424 (VHH)
VHH: QVQLVESGGDLVQAGGSLRLSCAASGGIFIINNMGWYRQTPGNQRELVAEITRAGNSNYADSVKGRFTISRDNAKNTVYLQMNRLKPEDTAVYYCNFNVRYYGEYWGQGTQVTVSS
notes: Family 29; also called CA8444 (pMESy4, E. coli)
With B10 the binding [4] was “binds” and the binding [2] was “binds”.

B11: NANOBODY CA8408 (VHH)
VHH: QVQLVESGGGLVQAGDSLRLSCAASGLIVSNYAMGWFRQAPGKEREFVAYINWNGGVTYYTNSVKGRFTISRDNAKNTVYLQMNSLKPEDTAVYYCARTSRASVTTRVADFGYWGQGTQVTVSS
notes: Family 6; also called CA8109 (pMESy4, E. coli)
B11 was tested, and the binding [4] was “binds”.

B12: NANOBODY CA8406 (VHH)
VHH: QVQLVESGGGLVQPGGSLRLSCAASTNIFNLRSMGWYRQAPGKERELVATITTYNTNYADSVKGRFTISRDNAKKTMYLQMNSLRPEDTAVYYCNLQNRYDAMDYWGKGTQVTVSS
notes: Family 11
In the case of B12, the binding [4] is reported as “binds”.

B13: NANOBODY CA8312 (VHH)
VHH: QVQLVESGGGLVQAGGSKRLSCAASGRPFSNSAMGWFRQAPGKEREFVAAISWSGGNTYYADSVKGRFTISRDNAKNAVYLRMNSLEPEDTAVYYCAGDRQPYVYDLPTAQYQYDYWGQGTQVTVSS
notes: Family 1; also called CA8328 (pMESy4, E. coli)
With B13 the binding [2] was “binds”.

B14: NANOBODY CA8411 (VHH)
VHH: QVQLVESGGGLVQAGGSLRLSCAASARTFSRYGAGWFRQAPGKEREFVGAITWGGGRTKYADSVKGRFTISRDNSKNTVYLQMNSLKSEDTAVYYCASSSIEFGPLEDTYDYWGQGTQVTVSS
notes: Family 3
With B14 the binding [4] was “binds” and the binding [2] was “binds”.

B15: NANOBODY CA8314 (VHH)
VHH: QVQLVESGGGLVQAGDSLRLSCTASERAFSRYAMGWFRQAPGKERELVAAVSWAGGTTYYGDSVKGRFTISRDNAKITVYLQMNSLKPEDTAVYYCAAEAREFSVGSYYATEYDYWGQGTQVTVSS
notes: Family 4; also called CA8330 (pMESy4, E. coli)
B15 was tested, and the binding [2] was “binds”.

B16: NANOBODY CA8315 (VHH)
VHH: QVQLVESGGGLVQAGGSLRLSCAASGRTFSNYAMGWFRQTPGKEREFVAAITWSGGATYYADSVKGRFIISRDNTKNTVYLQMNSLKPEDTAVYYCAADRKPYSYYPSDFGSWGQGTQVTVSS
notes: Family 5; also called CA8331 (pMESy4, E. coli)
In the case of B16, the binding [2] is reported as “binds”.

B17: NANOBODY CA8318 (VHH)
VHH: QVQLVESGGGRVQAGDSLRLSCAASGRTFSPYAMGWFRQAPGKEREFVATINWSGDYTYYTDSVKGRFTTSRDNAKNTLYLEMNSLNAEDTAVYYCVARVGSPSSSDRAYQYWGQGTQVTVSS
notes: Family 8; also called CA8334 (pMESy4, E. coli)
In the case of B17, the binding [2] is reported as “binds”.
